PubChem BioAssay AID652243, Drosophila RNAi Screening Center – 2013

Test: 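Fly genes required for human androgen receptor driven transcription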 (primary screen)
System: Drosophila S2R+ cells
Knock-down reagent: long dsRNA against Drosophila genes
Duration: 72 h (48 h, then 24 h hormone)
Conditions: synthetic androgen R1881 at 10 nM for 24 h
Detection: 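Per-well raw luminescence of the androgen-driven firefly reporter and of the Renilla control, two replicates each, without normalisation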
Reading the numbers: firefly reporter light: higher = more light from androgen-responsive reporter; Renilla control light: higher = more constitutive control signal (cell number, transfection)
Rule for the call: 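Across duplicate plates, a knock-down whose log firefly/Renilla ratio shifted a set fold down or up from the GFP/LacZ control mean was a hit; the downward cut appears as both 1.5 and 3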
Meaning of the calls: active = hit: reporter lowered or raised; inactive = no hit
The screen tested about 24,000 reagents; below is an unselected part of those that have a named target and a result. Of all reagents, 246 (1%) are marked active. 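Plates not normalised; calls are printed but the firefly/Renilla ratio behind them is not deposited; fold cut for lowering reported inconsistently.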 The raw values are shown without normalisation. Names joined by + are all predicted targets of the reagent. The record does not give: the amount of reagent.

gene | DRSC id | firefly reporter light, replicate 1 | firefly reporter light, replicate 2 | Renilla control light, replicate 1 | Renilla control light, replicate 2 | Outcome
CG42254 (retired record) | DRSC06194 | 56603 | 72152 | 1.36e6 | 1.36e6 | inactive
vari + Pomp | DRSC36853 | – | – | – | – | inactive
CG15375 | DRSC18045 | 2.82e5 | 4.16e5 | 3.32e6 | 4.42e6 | inactive
CG15375 | DRSC29860 | 7.78e5 | 6.49e5 | 1.01e6 | 1.61e6 | inactive
obst-H | DRSC10935 | 3.00e5 | 2.54e5 | 3.69e6 | 3.01e6 | inactive
obst-H | DRSC10940 | 3.19e5 | 2.83e5 | 2.07e6 | 2.38e6 | inactive
Cbp20 | DRSC16601 | 51678 | 1.27e5 | 9.95e5 | 9.99e5 | inactive
CG33643 | DRSC37852 | 7.38e5 | 7.44e5 | 1.99e6 | 1.91e6 | inactive
Rdl | DRSC11264 | 1.06e6 | 5.91e5 | 1.68e6 | 9.78e5 | inactive
Rdl | DRSC27696 | 1.32e5 | 1.21e5 | 4.50e5 | 5.32e5 | inactive
CG13255 | DRSC11702 | 2.07e5 | 2.30e5 | 2.57e6 | 2.49e6 | inactive
RtGEF | DRSC03604 | 69540 | 78481 | 7.04e5 | 5.60e5 | inactive
RtGEF | DRSC22207 | 7.09e5 | 7.15e5 | 1.91e6 | 1.93e6 | inactive
CG17991 | DRSC15294 | 1.96e5 | 2.13e5 | 1.86e6 | 2.71e6 | inactive
CG31882 | DRSC01084 | 1.30e5 | 1.31e5 | 5.16e5 | 4.39e5 | inactive
Fancd2 | DRSC15208 | 2.46e5 | 3.64e5 | 2.45e6 | 3.10e6 | inactive
Fancd2 | DRSC22763 | 9.34e5 | 1.27e6 | 1.67e6 | 2.03e6 | inactive
CG30116 | DRSC05935 | 5.34e5 | 6.08e5 | 8.06e5 | 8.61e5 | inactive
CG30116 | DRSC06685 | 1.10e5 | 1.19e5 | 1.79e6 | 1.33e6 | inactive
Cul3 | DRSC03537 | 8.34e5 | 2.96e5 | 1.45e6 | 1.03e6 | inactive
Cul3 | DRSC21525 | 6.21e5 | 4.86e5 | 1.73e6 | 1.64e6 | inactive
Cul3 | DRSC26199 | 4.68e5 | 3.14e5 | 9.39e5 | 5.70e5 | inactive
Cul3 | DRSC27885 | 5.72e5 | 3.83e5 | 2.17e6 | 1.25e6 | inactive
CG11710 | DRSC20485 | 2.52e5 | 1.83e5 | 1.10e6 | 6.69e5 | inactive
CG11710 | DRSC29756 | 5.99e5 | 4.74e5 | 1.81e6 | 1.64e6 | inactive
Cf2 + CG3008 | DRSC36836 | – | – | – | – | inactive
CG4332 | DRSC19890 | 53722 | 32715 | 4.74e5 | 2.70e5 | inactive
Nxt1 | DRSC04630 | 4.91e5 | 5.62e5 | 1.77e6 | 1.77e6 | inactive
Nxt1 | DRSC28865 | 5.82e5 | 4.56e5 | 8.95e5 | 1.03e6 | inactive
drosha | DRSC07607 | 1.20e6 | 5.97e5 | 2.31e6 | 9.56e5 | inactive
CG10949 | DRSC02112 | 7.96e5 | 7.00e5 | 2.65e6 | 3.44e6 | inactive
CG10949 | DRSC27310 | 3.49e5 | 2.14e5 | 3.95e5 | 3.38e5 | inactive
Act79B | DRSC11604 | 3.38e5 | 2.28e5 | 2.58e6 | 2.07e6 | inactive
Act79B | DRSC25023 | 8.61e5 | 8.54e5 | 1.49e6 | 1.26e6 | inactive
Bap60 | DRSC19337 | 1.13e5 | 1.13e5 | 4.90e5 | 4.18e5 | inactive
CG31678 | DRSC02618 | 4.67e5 | 1.05e6 | 1.19e6 | 2.18e6 | inactive
CG31678 | DRSC02619 | 80543 | 56959 | 8.84e5 | 9.89e5 | inactive
Cht6 | DRSC18001 | 5.14e5 | 5.51e5 | 3.07e6 | 3.25e6 | inactive
Cht6 | DRSC18253 | 3.69e5 | 3.68e5 | 3.43e6 | 2.92e6 | inactive
Cht6 | DRSC23211 | 8.77e5 | 7.41e5 | 1.40e6 | 1.32e6 | inactive
Cht6 | DRSC28095 | 5.58e5 | 6.17e5 | 2.40e6 | 1.99e6 | inactive
Tsp42Eq | DRSC06180 | 3.39e5 | 3.22e5 | 2.37e6 | 1.47e6 | inactive
dre4 | DRSC08714 | 52685 | 63649 | 7.21e5 | 9.26e5 | inactive
SNRPG | DRSC20207 | 4.72e5 | 3.99e5 | 2.81e6 | 2.61e6 | inactive
CG3065 | DRSC24998 | 7.04e5 | 7.37e5 | 8.81e5 | 8.66e5 | inactive
TotF | DRSC02305 | 1.18e5 | 1.49e5 | 1.63e6 | 1.69e6 | inactive
Rabex-5 | DRSC08628 | 7.75e5 | 1.18e6 | 1.48e6 | 2.23e6 | inactive
Rabex-5 | DRSC29819 | 5.98e5 | 4.12e5 | 1.50e6 | 1.25e6 | inactive
Gr98d | DRSC14571 | 2.38e5 | 1.82e5 | 2.41e6 | 2.80e6 | inactive
Gr98d | DRSC24547 | 6.19e5 | 5.97e5 | 4.62e5 | 5.58e5 | inactive
pcx | DRSC18186 | 2.69e5 | 3.89e5 | 3.88e6 | 3.06e6 | inactive
pcx | DRSC18187 | 3.86e5 | 3.86e5 | 3.63e6 | 3.10e6 | inactive
pcx | DRSC18188 | 3.58e5 | 4.86e5 | 2.86e6 | 3.55e6 | inactive
pcx | DRSC18189 | 3.87e5 | 4.03e5 | 3.77e6 | 3.28e6 | inactive
pcx | DRSC18190 | 3.76e5 | 3.18e5 | 2.73e6 | 2.68e6 | inactive
pcx | DRSC18816 | 1.07e5 | 94506 | 1.10e6 | 1.13e6 | inactive
CG30369 | DRSC21996 | 5.10e5 | 5.95e5 | 2.21e6 | 2.02e6 | inactive
CG30369 | DRSC29843 | 8.15e5 | 7.67e5 | 1.29e6 | 1.70e6 | inactive

A few values from above:
For “Outcome”, vari + Pomp [DRSC36853] is entered as inactive
Entry for SNRPG [DRSC20207] under “firefly reporter light, replicate 1”: 4.72e5
Entry of pcx [DRSC18190] under “Outcome”: inactive
Under “Renilla control light, replicate 2”, Cul3 [DRSC27885] has 1.25e6
TotF [DRSC02305], firefly reporter light, replicate 1 → 1.18e5
Under “Renilla control light, replicate 2”, obst-H [DRSC10935] has 3.01e6
